Data reported in publication PMC7527724.

Target: T1, Sorting nexin 2 (SNX2) (human (endogenous in HEp-2)) (UniProt O60749)
T1 sequence: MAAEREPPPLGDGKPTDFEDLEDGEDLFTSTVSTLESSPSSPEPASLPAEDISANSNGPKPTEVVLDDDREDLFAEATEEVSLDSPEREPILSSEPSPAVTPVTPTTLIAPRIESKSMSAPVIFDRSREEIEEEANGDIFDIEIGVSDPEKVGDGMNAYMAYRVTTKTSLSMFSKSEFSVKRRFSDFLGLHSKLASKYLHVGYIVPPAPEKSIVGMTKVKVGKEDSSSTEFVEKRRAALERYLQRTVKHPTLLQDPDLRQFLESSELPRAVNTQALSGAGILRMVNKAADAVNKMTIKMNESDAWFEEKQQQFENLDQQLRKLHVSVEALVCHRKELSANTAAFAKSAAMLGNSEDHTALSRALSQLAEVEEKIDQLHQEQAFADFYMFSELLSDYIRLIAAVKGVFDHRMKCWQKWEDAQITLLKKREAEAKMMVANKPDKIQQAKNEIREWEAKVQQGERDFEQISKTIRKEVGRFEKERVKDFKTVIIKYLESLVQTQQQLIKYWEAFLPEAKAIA
Assay: proximity ligation; HEp-2 cells infected with HRSV at MOI 1, fixed at 24 hpi with 4% PFA, permeabilised with 0.01% saponin; Duolink in situ PLA with pairs of primary antibodies from different species; confocal microscopy

Substance: Human respiratory syncytial virus matrix protein (M)
- binding: binds

These are yes or no findings as the source states them, for the method shown. In cells and extracts the contact can be indirect. Binding calls can cover weak binding; strength is not graded here.
